Experimental data: paper PMC7271317
No constants are given. Whether binding was seen depends on the method and setting. Binding can be weak; no strength is given. Tags and fused reporters may be left off the sequences shown.

How the values were obtained:
[1] = target: T1, recombinant full-length (FL) GFP-HSET (human) (UniProt Q9BW19); experiment: pull-down; 20 μl GFP-Trap beads with FL, tail or motor GFP-HSET incubated with 300 μl purified recombinant IFT88/70/52/46 for 1 h at RT, five washes with buffer containing 0.2% NP-40, immunoblot; GFP-Trap beads alone as control; both purified
T1 sequence: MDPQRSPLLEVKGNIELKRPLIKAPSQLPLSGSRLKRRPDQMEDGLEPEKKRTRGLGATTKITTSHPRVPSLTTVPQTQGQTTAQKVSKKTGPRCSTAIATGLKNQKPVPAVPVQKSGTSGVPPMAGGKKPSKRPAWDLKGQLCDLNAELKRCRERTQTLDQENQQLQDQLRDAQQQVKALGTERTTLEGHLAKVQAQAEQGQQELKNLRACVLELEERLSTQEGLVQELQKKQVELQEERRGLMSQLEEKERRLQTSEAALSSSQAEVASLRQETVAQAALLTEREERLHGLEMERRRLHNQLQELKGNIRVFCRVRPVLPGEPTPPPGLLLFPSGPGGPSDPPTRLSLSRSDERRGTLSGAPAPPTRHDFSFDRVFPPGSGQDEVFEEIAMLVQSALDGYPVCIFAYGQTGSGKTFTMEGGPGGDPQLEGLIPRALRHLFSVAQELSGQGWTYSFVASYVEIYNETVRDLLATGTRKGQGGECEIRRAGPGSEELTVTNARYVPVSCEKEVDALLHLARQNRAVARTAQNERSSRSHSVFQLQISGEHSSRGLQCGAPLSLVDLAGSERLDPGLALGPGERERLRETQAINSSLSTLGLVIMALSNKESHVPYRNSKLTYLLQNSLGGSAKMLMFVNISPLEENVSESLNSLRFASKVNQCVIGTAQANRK

[2] = target: T2, motor (Mot) domain of HSET fused to GFP (aa 145-673) (human) (UniProt Q9BW19); experiment: as above
T2 sequence: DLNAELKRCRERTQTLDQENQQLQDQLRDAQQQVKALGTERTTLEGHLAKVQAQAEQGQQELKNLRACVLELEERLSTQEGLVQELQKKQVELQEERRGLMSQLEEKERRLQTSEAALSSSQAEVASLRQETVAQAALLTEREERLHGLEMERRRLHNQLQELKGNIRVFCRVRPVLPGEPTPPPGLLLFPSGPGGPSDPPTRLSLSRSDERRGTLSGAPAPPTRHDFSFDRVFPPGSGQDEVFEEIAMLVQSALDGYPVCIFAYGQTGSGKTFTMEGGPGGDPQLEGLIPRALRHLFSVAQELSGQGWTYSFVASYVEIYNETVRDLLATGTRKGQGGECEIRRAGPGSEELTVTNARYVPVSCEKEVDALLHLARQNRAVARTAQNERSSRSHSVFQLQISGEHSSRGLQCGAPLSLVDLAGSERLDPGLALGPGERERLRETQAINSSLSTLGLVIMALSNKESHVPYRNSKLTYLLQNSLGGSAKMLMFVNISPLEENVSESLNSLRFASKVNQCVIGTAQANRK

With “purified recombinant IFT-B subcomplex made of IFT88/70/52/46” the binding [1] was “binds” and the binding [2] was “binds”.
